# Results reported in the supplement of paper PMC3334620.
# In all, about 33,000 sequences were measured (“E-score (-0.5 to 0.5)”: median about -0.0034, highest 2% from about 0.25 on). Some of the results follow.
# Target: T1, Yap3 (UniProt P38749)
# T1 sequence: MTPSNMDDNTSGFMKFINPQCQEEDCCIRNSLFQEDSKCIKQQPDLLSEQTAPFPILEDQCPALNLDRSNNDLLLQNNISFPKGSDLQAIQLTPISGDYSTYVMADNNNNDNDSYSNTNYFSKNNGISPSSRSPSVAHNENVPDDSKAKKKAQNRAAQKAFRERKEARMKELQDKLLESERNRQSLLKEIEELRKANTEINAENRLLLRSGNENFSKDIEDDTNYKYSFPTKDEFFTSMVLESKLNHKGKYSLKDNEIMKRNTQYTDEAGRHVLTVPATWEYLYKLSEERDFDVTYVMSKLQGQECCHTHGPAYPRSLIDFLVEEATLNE
# Assay: PBM E-score (8-mer binding enrichment) (E-score (-0.5 to 0.5)); higher = stronger / more preferred TF binding
# Details: protein concentration: 100 nM; construct: GST-full length
# Procedure, shortened: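 Universal all-10-mer Agilent arrays, double-stranded by primer extension on fresh or once-stripped slides, were probed with about 100-200 nM GST-tagged yeast transcription factors made by PURExpress. Fluorescent anti-GST detected bound protein, and masliner normalised the scans. E-scores from the Universal PBM Analysis Suite were given to each ungapped eight-base word pooled with its reverse complement.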
row,Sequence,PBM E-score
1,CAGTTATA,0.0741
2,TAGTACCA,0.0794
3,CGCTCGGA,-0.0175
4,CCAAGTGG,-0.144
5,TATATTCA,0.259
6,GTATTGCA,0.0173
7,CCCGATAA,-0.0403
8,TCTGTGAA,0.129
9,AACCAGCC,-0.187
10,AGATTCAC,-0.0506
11,ATCCAAAC,0.0616
12,CGGCGCGC,0.0571
13,AGTTCCAC,-0.0735
14,CAAAAAAA,0.203
15,CATCAGCG,-0.102
16,ACGTGTTC,-0.0741
17,TACGCTAA,0.177
18,TATATGGA,0.108
19,GAGTATGC,0.0326
20,CCTCCGTA,-0.0157
21,AGTCCTAG,-0.165
22,CATTCAAG,-0.0224

row,Sequence,PBM E-score
1,CTACTTAA,0.00148
2,CATGTCGG,-0.167
3,CAGCGTAG,-0.031
4,AAGGACCG,-0.218
5,AGCGTCTC,-0.138
6,GGCTCACA,-0.0615
7,GACACGTA,0.0699
8,CCTCCTGA,-0.115
9,GAATGGCC,-0.0883
10,CTCCGGTC,-0.224
11,CATCGAGC,0.019
12,CAGTCGTC,-0.172
13,CAGCCGCG,-0.13
14,CCGGGCAG,-0.25
15,ATACAGTA,0.1
16,AAAAATGG,0.172
17,TCCATACA,0.0188
18,CGTGGTAC,-0.179
19,ACCGTGAC,-0.0732
20,ACTTGACC,-0.1
21,CGGAGCCC,-0.285
22,AGAAGACA,0.00673

row,Sequence,PBM E-score
1,AGGAGAGC,-0.293
2,CTATAGCA,0.0881
3,AAGCGTTG,0.00349
4,TATTTCCA,0.00077
5,AATTTAGG,0.194
6,ACGGCGAC,-0.128
7,AAAGAGAC,0.0961
8,ATGCATCG,0.0631
9,GAATGTTA,0.154
10,AGTGTGAA,0.183
11,AGCGTCCG,-0.168
12,GACAACTA,0.139
13,ATCGTAGC,0.0572
14,ACTCCGGC,-0.0211
15,GATGCTAA,0.0345
16,AAGCATAA,0.127
17,AGAGGCAT,-0.0393
18,AGACATAC,0.0492
19,CGGATTTA,0.0923
20,CCAGCAAC,0.0144
21,TCCGAGGA,-0.0268
22,CCCGTCTC,-0.254

row,Sequence,PBM E-score
1,CCGGTCCG,-0.29
2,ATGAGATA,0.0846
3,GGACTTAC,0.0689
4,GATTGGCA,-0.0962
5,CGTAGGCC,-0.14
6,GCCCTCGA,-0.0443
7,AGCGTATC,-0.0352
8,ACGAGCCT,-0.141
9,ACCAGCAA,0.13
10,CTACCCTC,-0.0893
11,AGCTAGAC,-0.142
12,GCGATCAA,0.0161
13,GTCATGTA,0.00979
14,GCACCCAA,-0.192
15,ATGGGTTG,0.0295
16,CTAAGCAG,-0.205
17,TCAATCCA,0.0716
18,ATTTCGGC,0.0324
19,CCCTTTGC,-0.0908
20,AGCCAAGA,-0.0031

# Part of the list above, with tabs:
row	Sequence	PBM E-score
7	AAAGAGAC	0.0961
8	ATGCATCG	0.0631
9	GAATGTTA	0.154
10	AGTGTGAA	0.183
11	AGCGTCCG	-0.168
12	GACAACTA	0.139
